In the experiment the target is T1, CTT7-FLAG (expressed in cells) (human).
T1 sequence: MEKPLPL
Briefly: co-IP.

Protein sequences, listed by entry. Tags and fused reporters are not part of them. Lines headed by an entry give the natural chain unless they say otherwise; changes in a name come on top.
UniProt Q86WV6: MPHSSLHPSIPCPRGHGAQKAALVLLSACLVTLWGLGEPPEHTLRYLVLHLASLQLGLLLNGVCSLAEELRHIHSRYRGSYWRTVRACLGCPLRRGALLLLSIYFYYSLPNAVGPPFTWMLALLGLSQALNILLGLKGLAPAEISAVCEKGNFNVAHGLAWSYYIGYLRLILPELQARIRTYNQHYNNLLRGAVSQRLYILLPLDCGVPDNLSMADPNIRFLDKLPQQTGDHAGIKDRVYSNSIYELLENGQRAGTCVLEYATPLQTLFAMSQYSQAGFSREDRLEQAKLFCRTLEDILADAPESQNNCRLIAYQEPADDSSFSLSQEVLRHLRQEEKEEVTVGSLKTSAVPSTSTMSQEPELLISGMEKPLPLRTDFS

No constants are given. Whether binding was seen depends on the method and setting. In cells and extracts the contact can be indirect. Some results given as binding are weak or reduced against the parent protein; the word gives no strength. Where a sequence is shown, tags or fusion partners need not be part of it.

Consider “human STING, wild type (WT-STING) (from UniProt Q86WV6 1-379)”, for which the binding entry is “binds”.

With “STING Q273A/A277Q (STING-AQ) (from UniProt Q86WV6 1-379)”, the binding result was “binds”.

For the origin of these results see doi:10.1101/2023.08.11.553045.
